{
  "source": "patent EP4001294A1",
  "about": "“TETRAPEPTIDE AND COMPOSITIONS COMPRISING TETRAPEPTIDES” (The Boots Company plc, priority 2020, dated 2022)",
  "type_in_all_cases": "cell-based",
  "key": {"Decorin": {"tested_on": "Decorin", "test": "ELISA assay of ECM protein expression by fibroblasts: decorin", "settings": "normal human dermal fibroblasts, 72 hours, culture supernatant, weighted to viable cells"}, "Fibrillin-1": {"tested_on": "Fibrillin-1", "test": "Immunofluorescence of Fibrillin-1 expression by HDF cells", "settings": "primary human dermal fibroblast (HDF) cells, 5 days with peptide; peptide concentration that offered the highest yield of Fibrillin-1 production (not given); fibre density by ImageJ"}, "Collagen I (PIP)": {"tested_on": "Collagen I (PIP)", "test": "ELISA assay of ECM protein expression by fibroblasts: collagen I via PIP", "settings": "normal human dermal fibroblasts, 72 hours, culture supernatant, weighted to viable cells"}, "Fibronectin": {"tested_on": "Fibronectin", "test": "ELISA assay of ECM protein expression by fibroblasts: fibronectin", "settings": "normal human dermal fibroblasts, 72 hours, culture supernatant, weighted to viable cells, Sig. P<0.01"}, "Collagen IV": {"tested_on": "Collagen IV", "test": "ELISA assay of ECM protein expression by fibroblasts: collagen IV", "settings": "normal human dermal fibroblasts, 72 hours, culture supernatant, weighted to viable cells"}, "[1]": {"settings": "10 to 15 ppm peptide, Sig. P<0.01"}},
  "note": "At least one peptide structure holds a part that was inferred or is arguable (an end, a ring closure or a residue). Peptide text beside a SMILES is read from it. * marks the point of attachment. Palmitoyl = CCCCCCCCCCCCCCCC(=O)*",
  "data": [
    {"compound": "CCCCCCCCCCCCCCCC(=O)N[C@@H](C)C(=O)N[C@@H](CCCCN)C(=O)NCC(=O)N[C@@H](CC(=O)O)C(=O)O", "note": "[Pal-AKGD-OH] (Palmitoyl-AKGD-OH)", "values": [
      {"measurement": "Decorin, % increase versus the negative control", "setting": "Decorin; 15ppm peptide, Sig. P<0.05", "value": "+39%"},
      {"measurement": "Fibrillin-1, percentage increase in fibrillin abundance compared to untreated control", "setting": "Fibrillin-1", "value": "+116%"},
      {"measurement": "Collagen I (PIP), % increase versus the negative control", "setting": "Collagen I (PIP); 15ppm peptide, Sig. P<0.05", "value": "+26%"},
      {"measurement": "Fibronectin, % increase versus the negative control", "setting": "Fibronectin; 15ppm peptide", "value": "+112%"},
      {"measurement": "Collagen IV, % increase versus the negative control", "setting": "Collagen IV; 15ppm peptide, Sig. P<0.05", "value": "+40%"}
    ]},
    {"compound": "CCCCCCCCCCCCCCCC(=O)N[C@@H](CCC(=O)O)C(=O)N[C@@H](CCCCN)C(=O)NCC(=O)N[C@@H](CC(=O)O)C(=O)O", "note": "[Pal-EKGD-OH] (Palmitoyl-EKGD-OH)", "values": [
      {"measurement": "Decorin, % increase versus the negative control", "setting": "Decorin; 12.5ppm peptide, Sig. P<0.01", "value": "+ 43%"},
      {"measurement": "Fibrillin-1, percentage increase in fibrillin abundance compared to untreated control", "setting": "Fibrillin-1", "value": "+95%"},
      {"measurement": "Collagen I (PIP), % increase versus the negative control", "setting": "Collagen I (PIP); 12.5ppm peptide, Sig. P<0.01", "value": "+101%"},
      {"measurement": "Fibronectin, % increase versus the negative control", "setting": "Fibronectin; 12.5ppm peptide", "value": "+ 114%"},
      {"measurement": "Collagen IV, % increase versus the negative control", "setting": "Collagen IV; 12.5ppm peptide, Sig. P<0.01", "value": "+ 73%"}
    ]},
    {"compound": "CCCCCCCCCCCCCCCC(=O)NCC(=O)N[C@@H](Cc1ccc(O)cc1)C(=O)N[C@H](C(=O)N[C@@H](CC(C)C)C(=O)O)[C@@H](C)CC", "note": "[Pal-GYIL-OH] (Palmitoyl-GYIL-OH)", "values": [
      {"measurement": "Fibrillin-1, percentage increase in fibrillin abundance compared to untreated control", "setting": "Fibrillin-1", "value": "+3%"}
    ]},
    {"compound": "CCCCCCCCCCCCCCCC(=O)N[C@H](C(=O)N[C@@H](CCCNC(=N)N)C(=O)NCC(=O)N[C@@H](CC(=O)O)C(=O)O)[C@@H](C)CC", "note": "[Pal-IRGD-OH] (Palmitoyl-IRGD-OH)", "values": [
      {"measurement": "Decorin, % increase versus the negative control", "setting": "Decorin; 10 ppm peptide, Sig. P<0.01", "value": "+50%"},
      {"measurement": "Fibrillin-1, percentage increase in fibrillin abundance compared to untreated control", "setting": "Fibrillin-1", "value": "+62%"},
      {"measurement": "Fibronectin, % increase versus the negative control", "setting": "Fibronectin; 10 ppm peptide", "value": "+34%"},
      {"measurement": "Collagen IV, % increase versus the negative control", "setting": "Collagen IV; 10 ppm peptide, Sig. dns", "value": "+5%"}
    ]},
    {"compound": "CCCCCCCCCCCCCCCC(=O)N[C@@H](CC(C)C)C(=O)N[C@@H](CCCCN)C(=O)NCC(=O)N[C@@H](CC(=O)O)C(=O)O", "note": "[Pal-LKGD - OH, Pal-LKGD -OH] (Palmitoyl-LKGD-OH)", "values": [
      {"measurement": "Decorin, % increase versus the negative control", "setting": "Decorin; [1]", "value": "+ 95%"},
      {"measurement": "Fibrillin-1, percentage increase in fibrillin abundance compared to untreated control", "setting": "Fibrillin-1", "value": "+3.4%"},
      {"measurement": "Collagen I (PIP), % increase versus the negative control", "setting": "Collagen I (PIP); [1]", "value": "+64%"},
      {"measurement": "Fibronectin, % increase versus the negative control", "setting": "Fibronectin; 10 to 15 ppm peptide", "value": "+ 158%"},
      {"measurement": "Collagen IV, % increase versus the negative control", "setting": "Collagen IV; [1]", "value": "+ 94%"}
    ]}
  ]
}
